In patent US20260048047A1, “SMALL-MOLECULE ACTIVATORS OF MYCOBACTERIUM TUBERCULOSIS ADENYLYL CYCLASE” (priority 2022, published 2026):
For part of these data: At least one structure is not confirmed: it was looked up by name or label, or the drawing left a doubt. Some entries share one result that the patent states for a list of compounds.

How the values were obtained:
Type in all cases: cell-based, Mycobacterium tuberculosis
[1] = tested on: Mtb inside J774.1 macrophages; test: Intramacrophage activity in J774.1 cells
[2] = tested on: Mtb H37Rv (Mtb-lux) inside PMA-differentiated THP-1 cells; test: Intramacrophage activity in THP-1 cells
[3] = tested on: Mtb; test: Checkerboard combination assay with known anti-TB drugs (FIC index); details: partner drug is the label
Text: Combination Testing of mCLB073 with Known Anti-TB Drugs
To test for interactions between mCLB073 and known anti-tubercular drugs in combination in an in vitro growth assay, a checkerboard assay to test for interactions between mCLB073 and drugs with known anti-TB activity using Alamar Blue as a viability marker (Lechartier et al., 2012) was used. Drug combinations were categorized based on fractional inhibitory concentration (FIC) index of FIC≤0.5 as synergistic, 0.5<FIC≤1 as additive, 1<FIC≤4 as no interaction and FIC ≥4 as antagonism (Hall et al., 1983).
Performed were synergy studies between mCLB073 and nine anti-TB drugs: Moxifloxacin (MOXI), Isoniazid (INH), Rifampicin (RIF), Streptomycin (STR), Levofloxacin (LEV), Linezolid (LIN), Ethionamide (ETH), Pretomanid (PA-824), and Bedaquiline (BDQ). A checkerboard titration in a microtiter plate was used as previously described (Hsieh et al., 1993).

| Structure (SMILES) | Sinf (maximum inhibition), J774.1 [1] | Sinf (maximum inhibition), THP-1 [2] | Interaction of mCLB073 with anti-TB drug (FIC index category) [3] |
| --- | --- | --- | --- |
| O=[N+]([O-])c1cn2c(n1)OC[C@@H](OCc1ccc(OC(F)(F)F)cc1)C2 [Pretomanid, reference compound] | maximal response | maximal response | – |
| CO[C@H]1/C=C/O[C@@]2(C)Oc3c(C)c(O)c4c(O)c(c(/C=N/N5CCN(C)CC5)c(O)c4c3C2=O)NC(=O)/C(C)=C\C=C\[C@H](C)[C@H](O)[C@@H](C)[C@@H](O)[C@@H](C)[C@H](OC(C)=O)[C@@H]1C [RIF, Rifampicin] | – | – | additive (0.5<FIC≤1 as additive) |
| COc1nc2ccc(Br)cc2cc1[C@@H](c1ccccc1)[C@@](O)(CCN(C)C)c1cccc2ccccc12 [BDQ, Bedaquiline] | – | – | additive (0.5<FIC≤1 as additive) |
| O=[N+]([O-])c1cn2c(n1)OC[C@@H](OCc1ccc(OC(F)(F)F)cc1)C2 [PA-824, Pretomanid] | – | – | additive (0.5<FIC≤1 as additive) |
| [H]/N=C(/N)N[C@H]1[C@H](O)[C@@H](O)[C@H](O[C@@H]2O[C@@H](C)[C@](O)(C=O)[C@H]2O[C@@H]2O[C@@H](CO)[C@H](O)[C@@H](O)[C@@H]2NC)[C@@H](N/C(N)=N\[H])[C@@H]1O [STR, Streptomycin] | – | – | additive (0.5<FIC≤1 as additive) |
